No constants are given. Whether binding was seen depends on the method and setting. Some entries that bind do so weakly or less than the wild type.

Amino acid sequences for entries named in this document (tags omitted).
UniProt P21730: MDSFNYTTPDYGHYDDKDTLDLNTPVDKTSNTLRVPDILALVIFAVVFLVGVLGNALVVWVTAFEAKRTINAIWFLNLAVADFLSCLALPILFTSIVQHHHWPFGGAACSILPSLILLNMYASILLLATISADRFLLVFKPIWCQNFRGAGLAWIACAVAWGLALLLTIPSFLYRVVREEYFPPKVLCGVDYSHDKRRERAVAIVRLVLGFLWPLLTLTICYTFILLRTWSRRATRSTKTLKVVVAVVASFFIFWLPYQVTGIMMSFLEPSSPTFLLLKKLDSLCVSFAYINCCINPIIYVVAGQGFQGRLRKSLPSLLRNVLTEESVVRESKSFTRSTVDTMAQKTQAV

This assay has as its target human peripheral blood neutrophils (surface sites that bind human C5a peptide) (human) (UniProt P21730). Kind of assay: competition with 125I-hC5a on human neutrophils, peptide:hC5a 10:1.

B1: peptide M (residues 21-40 of human C5a peptide) (peptide)
peptide: CCYDGASVNNDETCEQRAAR
Take B1: the binding entry is “binds”.

B2: peptide A (residues 1-20 of human C5a peptide) (peptide)
peptide: MLQKKIEEIAAKYKHSVVKK
For the molecule B2, the binding entry is on record as “binds”.

The values are drawn from patent publication US6866845B1, “Compositions and methods for the treatment of sepsis” (The Regents of the University of Michigan, priority 1999, dated 2005).
